Test results reported in patent publication US20230190950A1 (Cidara Therapeutics, Inc., priority 2017, published 2023).

Experiment: general procedure: solution-phase peptide synthesis; HATU/DIEA (EDC/HOBt for Int-5b)
Details: coupling step, two steps

With penta-Boc-PMB-decapeptide the step yield was 94% (two steps).
